Test results taken from the supplement of paper PMC12873370.
Where “and” joins values, the source holds several entries; their conditions need not be identical. Identical values can stand only once. The list shows a part of the results. Single values are uncertain, as repeats are few or missing.

tested on: PREPP (mouse prostate epithelium Trp53/Pten KO); experiment: cell viability relative to untreated (fraction); higher = less growth inhibition; conditions: 5 µM; 3 days

Row | SMILES | cell viability
1 | O=C(O)[C@H]1C[C@@H](O)CN1 | 1.17
2 | CC/C=C\C/C=C\C/C=C\C/C=C\C/C=C\C/C=C\CCC(=O)O | 0.81
3 | CC(C)C[C@H](NC(=O)[C@H]1O[C@@H]1C(=O)O)C(=O)NCCCCN=C(N)N | 0.92
4 | C[C@H]1[C@H](C)CC[C@]2(C(=O)O)CC[C@]3(C)C(=CC[C@@H]4[C@@]5(C)C[C@@H](O)[C@H](O)[C@@](C)(CO)[C@@H]5[C@H](O)C[C@]43C)[C@H]12 | 0.947
5 | CCCCC[C@H](O)/C=C/[C@H]1[C@H](O)CC(=O)[C@@H]1CCCCCCC(=O)O | 0.897
6 | Cc1noc(NS(=O)(=O)c2ccc(N)cc2)c1C | 0.953
7 | CC(C)(CO)[C@@H](O)C(=O)NCCC(=O)NCCSSCCNC(=O)CCNC(=O)[C@H](O)C(C)(C)CO | 1.09
8 | CN1C(C(=O)Nc2ccccn2)=C(O)c2sc(Cl)cc2S1(=O)=O | 0.95
9 | N[C@H]1C(O)O[C@H](CO)[C@@H](O)[C@@H]1O (some centres undefined) | 0.918 and 1.07
10 | CNC(=O)c1cccnc1 | 1.01
11 | Nc1ccc(S(=O)(=O)NC(=O)c2ccccc2)cc1 | 1.02
12 | O=c1[nH]cnc2nc[nH]c12 | 0.963
13 | O=C(O)c1cc(O)cc(O)c1 | 0.9
14 | CC(C)CC(=O)N[C@H](C(=O)N[C@H](C(=O)N[C@@H](CC(C)C)[C@@H](O)CC(=O)N[C@@H](C)C(=O)N[C@@H](CC(C)C)[C@@H](O)CC(=O)O)C(C)C)C(C)C | 0.909
15 | Nc1ccn(C2OC(COP(=O)(O)OP(=O)(O)OP(=O)(O)O)C(O)C2O)c(=O)n1 (centres undefined) | 0.823
16 | Cl.NCCCC[C@H](N)C(=O)O | 1
17 | Clc1ccc(COC(Cn2ccnc2)c2ccc(Cl)cc2Cl)c(Cl)c1 (centres undefined) | 0.976 and 0.953
18 | CCCCCCCC/C=C\CCCCCCCC(=O)O | 0.987
19 | C[C@@H]1CC[C@@]2(NC1)O[C@H]1C[C@H]3[C@@H]4CC=C5C[C@@H](O[C@@H]6O[C@H](CO)[C@H](O)[C@H](O[C@@H]7O[C@H](CO)[C@@H](O)[C@H](O)[C@H]7O)[C@H]6O[C@@H]6O[C@@H](C)[C@H](O)[C@@H](O)[C@H]6O)CC[C@]5(C)[C@H]4CC[C@]3(C)[C@H]1[C@@H]2C | 0.996
20 | COC(=O)c1c2c(c3ccccc3c1O)OC(C)(C)C=C2 | 0.865
21 | CC1=C(/C=C/C(C)=C/C=C/C(C)=C/C=C/C=C(C)/C=C/C=C(C)/C=C/C2=C(C)CCCC2(C)C)C(C)(C)CCC1 | 0.888
22 | O=C(O)c1ccnc2ccccc12 | 0.957
23 | C=C(C)C1CC=C(/C=N/O)CC1 (centres undefined) | 1.24
24 | CC(C)=CCC[C@](C)(O[C@@H]1O[C@H](CO)[C@@H](O)[C@H](O)[C@H]1O)[C@H]1CC[C@]2(C)[C@@H]1[C@H](O)C[C@@H]1[C@@]3(C)CC[C@H](O)C(C)(C)[C@@H]3[C@@H](O[C@@H]3O[C@H](CO)[C@@H](O)[C@H](O)[C@H]3O[C@@H]3OC[C@@H](O)[C@H](O)[C@H]3O)C[C@]12C | 1.03
